{"source": "patent US6829540B1", "about": "“Drug discovery using multiple membrane mimetic affinities” (priority 1997, dated 2004)", "key": {"[1]": {"experiment": "Three dimensional pattern matching of membrane binding constants relative to diazepam", "conditions": "relative to membrane binding data of diazepam; three dimensional {PC, PE, PS}"}, "[2]": {"experiment": "D^2 and Q classification of membrane binding data against therapeutic class training sets"}, "[3]": {"conditions": "compared to anticonvulsant class"}, "[4]": {"conditions": "compared to antidepressant class"}, "[5]": {"conditions": "compared to antihypertensive class"}, "[6]": {"conditions": "compared to antineoplastic class"}, "[7]": {"conditions": "compared to antiparkinson class"}, "[8]": {"conditions": "compared to antipsychotic class"}, "[9]": {"conditions": "compared to sedative hypnotic class"}}}
{"molecule": "CN(C)CCC=C1c2ccccc2C=Cc2ccccc21", "note": "[cyclobenzaprine]", "values": [{"measurement": "angle", "setting": "[1]", "result": 3.28}]}
{"molecule": "CN(C)CCCN1c2ccccc2CCc2ccccc21", "note": "[imipramine]", "values": [{"measurement": "angle", "setting": "[1]", "result": 3.44}]}
{"molecule": "CN1C(=O)CN=C(c2ccccc2)c2cc(Cl)ccc21", "note": "[diazepam]", "values": [{"measurement": "angle", "setting": "[1]", "result": 0}]}
{"molecule": "O=C1CN=C(c2ccccc2)c2cc([N+](=O)[O-])ccc2N1", "note": "[nitrazepam]", "values": [{"measurement": "angle", "setting": "[1]", "result": 2.45}]}
{"molecule": "O=C1CN=C(c2ccccc2)c2cc(Cl)ccc2N1CC1CC1", "note": "[prazepam]", "values": [{"measurement": "angle", "setting": "[1]", "result": 3.16}]}
{"molecule": "CC(N)Cc1ccc2c(c1)OCO2", "note": "(stereo not shown) [MDA, 3,4-methylendioxyamphetamine]", "values": [{"measurement": "D^2", "setting": "[2]; compared to analgesic class", "result": 10.6}, {"measurement": "Q", "setting": "[2]; compared to analgesic class", "result": "−5.34"}, {"measurement": "D^2", "setting": "[2]; compared to anorexic class", "result": 9.14}, {"measurement": "Q", "setting": "[2]; compared to anorexic class", "result": "−2.38"}, {"measurement": "D^2", "setting": "[2]; [3]", "result": 52.0}, {"measurement": "Q", "setting": "[2]; [3]", "result": "−24.0"}, {"measurement": "D^2", "setting": "[2]; [4]", "result": 24.6}, {"measurement": "Q", "setting": "[2]; [4]", "result": "−10.7"}, {"measurement": "D^2", "setting": "[2]; [5]", "result": 4.09}, {"measurement": "Q", "setting": "[2]; [5]", "result": "−3.91"}, {"measurement": "D^2", "setting": "[2]; [6]", "result": 0.991}, {"measurement": "Q", "setting": "[2]; [6]", "result": "−9.06"}, {"measurement": "D^2", "setting": "[2]; [7]", "result": 1.77}, {"measurement": "Q", "setting": "[2]; [7]", "result": "−2.24"}, {"measurement": "D^2", "setting": "[2]; [8]", "result": 25.5}, {"measurement": "Q", "setting": "[2]; [8]", "result": "−11.5"}, {"measurement": "D^2", "setting": "[2]; compared to antiviral class", "result": 31.7}, {"measurement": "Q", "setting": "[2]; compared to antiviral class", "result": "−13.5"}, {"measurement": "D^2", "setting": "[2]; compared to diuretic class", "result": 12.9}, {"measurement": "Q", "setting": "[2]; compared to diuretic class", "result": "−7.06"}, {"measurement": "D^2", "setting": "[2]; compared to hallucinogen class", "result": 3.20}, {"measurement": "Q", "setting": "[2]; compared to hallucinogen class", "result": 5.27}, {"measurement": "D^2", "setting": "[2]; compared to nucleoside class", "result": 6.38}, {"measurement": "Q", "setting": "[2]; compared to nucleoside class", "result": "−12.3"}, {"measurement": "D^2", "setting": "[2]; [9]", "result": 104}, {"measurement": "Q", "setting": "[2]; [9]", "result": "−49.3"}]}
{"molecule": "CCN(CC)C(=O)[C@@H]1C=C2c3cccc4[nH]c(Br)c(c34)C[C@H]2N(C)C1", "note": "[2Br-LSD]", "values": [{"measurement": "angle", "setting": "[1]", "result": 2.56}]}
{"molecule": "CC(CN1c2ccccc2Sc2ccccc21)N(C)C", "note": "(stereo not shown) [promethazine]", "values": [{"measurement": "angle", "setting": "[1]", "result": 1.48}]}
{"molecule": "CNC1=Nc2ccc(Cl)cc2C(c2ccccc2)=[N+]([O-])C1", "note": "[chlorodiazepoxide, chlordiazepoxide]", "values": [{"measurement": "angle", "setting": "[1]", "result": 1.82}]}
